Measurements from paper PMC12554172, “Systematic analysis of the RGS2 degron reveals characteristics of substrate recognition by the F-box protein FBXO44” (The Journal of Biological Chemistry, 2025).
These are yes or no findings as the source states them, for the method shown. Some results given as binding are weak or reduced against the parent protein; the word gives no strength. Tags and fused reporters may be left off the sequences shown.

Amino acid sequences for entries named in this document (tags omitted). A change or cut given only in a name is not applied to a line headed by its entry.
UniProt P41220: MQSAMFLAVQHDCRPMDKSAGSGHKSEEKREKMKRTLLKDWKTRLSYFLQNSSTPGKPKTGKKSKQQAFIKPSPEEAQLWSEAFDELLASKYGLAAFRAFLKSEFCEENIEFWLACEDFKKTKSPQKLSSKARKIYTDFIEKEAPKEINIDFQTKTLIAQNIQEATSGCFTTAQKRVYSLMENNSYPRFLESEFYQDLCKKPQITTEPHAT

Assays:
Experiment in all cases: peptide or protein array; custom PEPperPRINT peptide microarray (each position of RGS2^5–16 substituted by every other amino acid; C-terminal truncations); 2 μg/ml purified FLAG-FBXO44^FBA in staining buffer (PBS, 0.005% Tween, pH 7.4, 10% Rockland blocking buffer) overnight at 4 °C; anti-FLAG DyLight800; signal normalised to the original residue; both purified
RGS2^5–16 peptide R14A = molecular target: T1, RGS2^5–16 peptide R14A (UniProt P41220)
T1 sequence (peptide): MFLAVQHDCAPM

RGS2^5–16 peptide R14W = molecular target: T2, RGS2^5–16 peptide R14W (UniProt P41220)
T2 sequence (peptide): MFLAVQHDCWPM

[1] = molecular target: T3, RGS2^5–16 peptide, Asp^12 to Ala (UniProt P41220)
T3 sequence (peptide): MFLAVQHACRPM

[2] = molecular target: T4, RGS2^5–16 peptide, Asp^12 to His (UniProt P41220)
T4 sequence (peptide): MFLAVQHHCRPM

[3] = molecular target: T5, RGS2^5–16 peptide, Asp^12 to Ile (UniProt P41220)
T5 sequence (peptide): MFLAVQHICRPM

[4] = molecular target: T6, RGS2^5–16 peptide, Asp^12 to Met (UniProt P41220)
T6 sequence (peptide): MFLAVQHMCRPM

[5] = molecular target: T7, RGS2^5–16 peptide, Asp^12 to Pro (UniProt P41220)
T7 sequence (peptide): MFLAVQHPCRPM

[6] = molecular target: T8, RGS2^5–16 peptide, Asp^12 to Ser (UniProt P41220)
T8 sequence (peptide): MFLAVQHSCRPM

[7] = molecular target: T9, RGS2^5–16 peptide, Asp^12 to Val (UniProt P41220)
T9 sequence (peptide): MFLAVQHVCRPM

[8] = molecular target: T10, RGS2^5–16 peptide, Cys^13 to Arg (UniProt P41220)
T10 sequence (peptide): MFLAVQHDRRPM

[9] = molecular target: T11, RGS2^5–16 peptide, Leu^7 to Asp (UniProt P41220)
T11 sequence (peptide): MFDAVQHDCRPM

[10] = molecular target: T12, RGS2^5–16 peptide, Phe^6 to Asp (UniProt P41220)
T12 sequence (peptide): MDLAVQHDCRPM

[11] = molecular target: T13, RGS2^5–16 peptide, Pro^15 to Ala (UniProt P41220)
T13 sequence (peptide): MFLAVQHDCRAM

binding (RGS2^5–16 peptide R14A): binds | binding (RGS2^5–16 peptide R14W): binds | binding [1]: binds | binding [2]: binds | binding [3]: binds | binding [4]: binds | binding [5]: binds | binding [6]: binds | binding [7]: binds | binding [8]: binds | binding [9]: binds | binding [10]: binds | binding [11]: binds
B1: FLAG-tagged FBXO44 FBA domain (FBXO44^FBA) (domain or fragment, UniProt Q9H4M3-1 71-252)
chain: FYFLRSLHRNLLHNPCAEEGFEFWSLDVNGGDEWKVEDLSRDQRKEFPNDQVKKYFVTSYYTCLKSQVVDLKAEGYWEELMDTTRPDIEVKDWFAARPDCGSKYQLCVQLLSSAHAPLGTFQPDPATIQQKSDAKWREVSHTFSNYPPGVRYIWFQHGGVDTHYWAGWYGPRVTNSSITIGP
